## Screening data, single-dose tests

The chains behind the UniProt entries cited, without tags or fusion partners. Residues count along the entry.
UniProt Q8IDJ8, 1-583: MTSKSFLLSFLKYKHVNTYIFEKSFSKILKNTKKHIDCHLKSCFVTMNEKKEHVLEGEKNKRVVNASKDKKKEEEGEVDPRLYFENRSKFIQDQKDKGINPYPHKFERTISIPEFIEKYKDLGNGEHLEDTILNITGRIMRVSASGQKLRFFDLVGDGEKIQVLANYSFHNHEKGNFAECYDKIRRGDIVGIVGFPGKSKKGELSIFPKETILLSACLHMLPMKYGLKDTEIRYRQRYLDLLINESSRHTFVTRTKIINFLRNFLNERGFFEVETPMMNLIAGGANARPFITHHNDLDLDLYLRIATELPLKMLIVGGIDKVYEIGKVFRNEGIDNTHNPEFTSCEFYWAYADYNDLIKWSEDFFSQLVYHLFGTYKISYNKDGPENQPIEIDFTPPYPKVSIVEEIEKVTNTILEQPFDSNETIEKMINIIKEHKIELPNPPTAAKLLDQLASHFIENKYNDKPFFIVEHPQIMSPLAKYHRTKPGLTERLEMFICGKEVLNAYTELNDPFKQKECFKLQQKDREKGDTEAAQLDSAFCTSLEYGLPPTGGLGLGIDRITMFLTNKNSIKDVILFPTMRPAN
UniProt Q4DA54, 1-478: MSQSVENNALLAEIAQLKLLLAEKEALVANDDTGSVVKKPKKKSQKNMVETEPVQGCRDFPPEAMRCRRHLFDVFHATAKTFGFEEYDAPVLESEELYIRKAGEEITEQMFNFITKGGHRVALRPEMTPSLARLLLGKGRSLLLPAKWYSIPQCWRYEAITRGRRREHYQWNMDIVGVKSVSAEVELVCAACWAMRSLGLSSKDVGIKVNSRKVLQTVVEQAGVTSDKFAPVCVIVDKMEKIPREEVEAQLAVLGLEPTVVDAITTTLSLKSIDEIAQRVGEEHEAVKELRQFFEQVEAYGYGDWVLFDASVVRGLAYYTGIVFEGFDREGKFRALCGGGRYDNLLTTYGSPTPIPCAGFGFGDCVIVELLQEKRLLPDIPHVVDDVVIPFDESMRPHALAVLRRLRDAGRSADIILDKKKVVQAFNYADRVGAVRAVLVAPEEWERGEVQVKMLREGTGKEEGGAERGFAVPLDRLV
UniProt I6X8D2, whole entry: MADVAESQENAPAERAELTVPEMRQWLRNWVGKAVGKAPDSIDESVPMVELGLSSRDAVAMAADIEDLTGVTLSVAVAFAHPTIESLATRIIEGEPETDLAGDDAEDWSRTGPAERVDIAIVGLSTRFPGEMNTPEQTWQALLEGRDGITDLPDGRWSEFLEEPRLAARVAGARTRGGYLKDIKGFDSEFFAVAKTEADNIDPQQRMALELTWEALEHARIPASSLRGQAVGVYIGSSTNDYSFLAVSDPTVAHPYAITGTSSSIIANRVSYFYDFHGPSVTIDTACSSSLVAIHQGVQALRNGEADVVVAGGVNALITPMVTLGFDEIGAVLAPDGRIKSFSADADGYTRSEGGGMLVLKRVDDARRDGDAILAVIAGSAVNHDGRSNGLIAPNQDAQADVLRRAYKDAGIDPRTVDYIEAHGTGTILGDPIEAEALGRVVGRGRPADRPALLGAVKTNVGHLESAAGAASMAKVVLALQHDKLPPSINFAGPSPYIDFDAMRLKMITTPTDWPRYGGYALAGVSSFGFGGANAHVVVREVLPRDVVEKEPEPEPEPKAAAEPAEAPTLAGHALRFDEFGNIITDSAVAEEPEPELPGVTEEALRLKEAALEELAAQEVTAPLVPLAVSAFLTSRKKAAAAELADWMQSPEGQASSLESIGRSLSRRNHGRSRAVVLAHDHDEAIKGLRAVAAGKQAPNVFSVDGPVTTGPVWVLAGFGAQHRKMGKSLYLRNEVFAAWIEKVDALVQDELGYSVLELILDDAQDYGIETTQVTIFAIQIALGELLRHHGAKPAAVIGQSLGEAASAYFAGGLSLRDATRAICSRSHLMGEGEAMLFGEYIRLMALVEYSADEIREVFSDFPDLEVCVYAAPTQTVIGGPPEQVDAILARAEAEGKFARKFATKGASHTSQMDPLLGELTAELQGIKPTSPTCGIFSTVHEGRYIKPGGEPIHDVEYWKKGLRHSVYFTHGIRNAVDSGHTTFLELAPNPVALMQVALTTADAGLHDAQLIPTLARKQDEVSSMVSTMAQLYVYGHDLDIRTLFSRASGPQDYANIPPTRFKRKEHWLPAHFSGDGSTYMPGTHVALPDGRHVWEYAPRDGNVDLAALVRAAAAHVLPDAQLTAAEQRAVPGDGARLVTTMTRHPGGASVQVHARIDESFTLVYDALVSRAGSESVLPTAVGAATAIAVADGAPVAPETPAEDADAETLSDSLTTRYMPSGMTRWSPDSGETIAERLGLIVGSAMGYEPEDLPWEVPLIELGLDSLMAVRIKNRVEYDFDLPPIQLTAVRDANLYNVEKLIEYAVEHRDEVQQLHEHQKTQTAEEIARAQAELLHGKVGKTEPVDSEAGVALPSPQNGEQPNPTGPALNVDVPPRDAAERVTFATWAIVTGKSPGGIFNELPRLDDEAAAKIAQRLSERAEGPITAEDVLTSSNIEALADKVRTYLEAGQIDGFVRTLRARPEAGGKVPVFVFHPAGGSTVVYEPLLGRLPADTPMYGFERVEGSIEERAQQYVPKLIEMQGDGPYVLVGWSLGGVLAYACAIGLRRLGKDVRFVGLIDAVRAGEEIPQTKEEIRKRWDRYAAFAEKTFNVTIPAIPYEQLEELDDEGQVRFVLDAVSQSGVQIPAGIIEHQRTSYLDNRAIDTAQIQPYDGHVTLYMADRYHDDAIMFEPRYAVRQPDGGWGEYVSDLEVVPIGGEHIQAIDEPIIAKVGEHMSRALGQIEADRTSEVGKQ

PfKRS1: 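Lysine-tRNA ligase, Plasmodium falciparum 3D7 (UniProt Q8IDJ8). Enzyme assay of the cytosolic lysyl-tRNA synthetase in 384-well plates, read by luminescence. Tested at 30 µM. Higher reads as stronger inhibition, judged from the few compounds that gave an IC50. Size under these conditions: about 69,000 compounds, about 49 of them at 50% or above in at least one test.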
TcHisRS: 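Histidine-tRNA ligase, Trypanosoma cruzi CL Brener (UniProt Q4DA54). Enzyme assay of histidyl-tRNA synthetase; the read-out is not stated. Concentration: 30 µM. Direction is inferred from retests: higher values go with stronger inhibition. Of about 69,000 compounds tested this way, about 31 (0.045%) reached 50% or more in at least one test.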
Leishmania in macrophages: 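Cell assay of Leishmania donovani living inside macrophages; the read-out is not stated. Compounds at 30 µM. Direction is inferred from retests: higher values go with stronger inhibition. About 69,000 compounds were tested under these conditions; 1.5% (about 1,000) showed 50% or more at least once.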
Pks13 thioesterase: 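Enzyme assay of the thioesterase domain of polyketide synthase 13; the read-out is not stated. Target: Polyketide synthase Pks13, Mycobacterium tuberculosis (UniProt I6X8D2). Concentration: 30 µM. The record gives no direction; the compounds picked for IC50 retests had high values, so higher reads as stronger inhibition. Size under these conditions: about 67,000 compounds, about 300 of them at 50% or above in at least one test.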

Results are given as percent effect. The controls that fix the scale are not given in the record; negative values are as filed. Compounds were drawn at random from those tested, without regard to their results. Two or more numbers in one place are separate tests of the same structure; such repeats can differ widely. A dash means the value is not listed here; it may have been measured.

SMILES | PfKRS1 | TcHisRS | Leishmania in macrophages | Pks13 thioesterase
Cn1ccc(CN2CCCC23CCN(Cc2ccccc2F)CC3)n1 | 4.325 | 7.735 | - | 1.61
COCCN1CCC2(C1)CN(c1ncccn1)C2 | 2.366 | 2.299 | - | -21.55
Cc1ncc(CC(=O)N2CCC3(CCC(=O)N(C4CC4)C3)CC2)c(=O)[nH]1 | -3.58 | -1.676 | 4.566 | -22.9
CCC(C)NC(=O)CS(=O)(=O)Cc1nc(-c2cccs2)no1 (stereo not given) | 0.6744 | 0.6494 | 36.38 | -27.32
Cc1noc(C)c1CNc1c(N2CCCC2)cccc1N1CCCC1 | 1.26 | -1.734 | 97.2 | -27.23
CC(C)Nc1nc(C(=O)Nc2ccccn2)cs1 | 4.311 | 2.591 | 32.77 | -5.596
CC(C)c1nnc(NCc2ccsc2)o1 | 3.181 | 6.579 | -15.66 | 5.234
Cn1cc(C2CCCN2C(=O)c2cnc(-c3ccco3)s2)cn1 (stereo not given) | 3.027 | 3.03 | -18.88 | 8.474
CN(Cc1ccncc1)C1CCC[C@@H]2CN(c3ncccn3)C[C@H]12 (stereo not given in full) | 5.099 | 9.677 | - | -25.77
Cc1nc(-c2ccc(C(=O)O)cc2)cc(C2CCN(C(C)C)C2)n1 (stereo not given) | -2.396 | 5.376 | 21.72 | -3.469
COC(=O)c1ccc(F)c(Cn2nc(C)cc2C)c1 | 1.499 | 1.948 | 38.02 | -10.45
Cc1ccc(Cl)c(NC(=O)NC2(C)CCOC2)c1 (stereo not given) | 3.127 | 5.028 | -2.966 | -16.14
Cc1ccc(CN2CCCC(c3nnc(CN4CCCCC4)n3C)C2)s1 (stereo not given) | 3.812 | 1.508 | -11.9 | -11.41
COCC(=O)N1CCO[C@H]2[C@H](OCc3cccnc3)CC[C@@H]21 | -1.867 | 2.941 | - | 15.22
CC(C)CC(=O)N1Cc2ccccc2CC1C(=O)Nc1nccs1 (stereo not given) | 4.07 | 1.587 | 20.33 | 1.39
COc1cccc(COCC(=O)N2CCCC(n3ccnc3C)C2)c1 (stereo not given) | 0.1172 | -0.7634 | 42.39 | -8.297
Cn1nc(CN2CCCC2)c2c1CN(c1cnccn1)CC2.O=C(O)C(F)(F)F.O=C(O)C(F)(F)F | - | - | 21.02 | -
O=C(Cc1csc(N2CCNC2=O)n1)NCC1(c2ccccc2)CC1 | 2.401 | -1.935 | -18.82 | -24.51
Cc1nc(Nc2nnc(C)s2)cc(C2CCCN2C)n1 (stereo not given) | -2.967 | 4.918 | -9.39 | -9.425
Cc1cccc(NC(=O)c2cnc(C3CCCNC3)cn2)n1 (stereo not given) | 2.006 | 10.61 | 32.9 | 5.21
O=C(Nc1ccc(Cl)cn1)c1nn(C2CCS(=O)(=O)C2)c2c1CCCC2 (stereo not given) | 2.431 | 6.211 | 16.26 | -8.007
Cc1ccc(C(=O)NS(=O)(=O)c2ccccc2Br)c(=O)[nH]1 | 0.29 | 1.17 | 15.78 | -8.939
Cc1ccc(-c2cc(CS(=O)(=O)NC3CCCNC3=O)on2)cc1 (stereo not given) | 3.128 | 1.587 | 10.38 | -10.7
CCn1c(C2CCCN(Cc3nccn3CCOC)C2)nn(C)c1=O (stereo not given) | 4.457 | -0.8475 | 38.37 | -17.58
CC(C)c1nnc2n1CCN(C(=O)c1ccc3c(c1)COC3)C2 | 2.428 | 2.809 | 7.509 | 3.536
NC(=O)C1CCN(Cc2cc3c(cc2Br)OCCO3)C1 (stereo not given) | 2.98 | 5.911 | 17.06 | 15.55
CC1(C)Cc2nc(C(C)(C)C)ncc2C(NC(=O)Cc2nnn[nH]2)C1 (stereo not given) | -7.777 | 9.453 | -22.43 | 29.45
COCCC(=O)N1Cc2ccccc2OC2(CCOCC2)C1 | 0.6829 | 4.545 | 19.04 | 2.784
O=C(c1ccoc1)N1CCCN(CC2CCOc3ccccc3C2)CC1 (stereo not given) | 2.571 | 8.911 | -12.61 | -
Cc1ncoc1C(=O)N1CCn2c(COCC3CC3)cnc2C1C (stereo not given) | -1.805 | 2.732 | 10.94 | -3.668
Cc1ccc(C2(CN3CCN(Cc4cnc(C)n4C)CC3)CC2)cc1.Cl | - | - | 0.995 | -
Cc1ccc2cc(C(=O)N3CCN(C(=O)N(C)C)CC3)ccc2n1 | 2.112 | 2.809 | 19.16 | -28.81
CCn1ncc(C(=O)N2CCN(CC3CCCO3)CC2)c1C (stereo not given) | 4.671 | -7.143 | 23.88 | -5.261
Cc1nc(NC(=O)c2c(-n3cnnn3)sc(C)c2C)sc1C | 2.038 | 5.941 | -16.18 | -9.001
CC(=O)N1CCN(c2ccc(Cl)nn2)C(=O)C1 | -1.984 | 5.325 | -1.926 | -5.695
COc1ccc(CNCC(C)Oc2ccccn2)cc1 (stereo not given) | -2.909 | 2.924 | - | -20
Cc1ccc(S(=O)(=O)n2ccn(C(=O)COc3ccccc3)c2=O)cc1 | -0.7908 | 8.537 | 12.7 & -10.75 | -1.004
Cc1cc2nc(C(C)C)cc(NC(C)c3nncn3C3CCCC3)n2n1 (stereo not given) | 0.3673 | 5.128 | 14.88 | -18.2
Cc1cnn(CC2CCCCN2Cc2nnc(C3CC3)n2C)c1 (stereo not given) | 0.6049 | 1.128 | 8.987 | -8.362
Cc1nc(CN2CCC3(CC2)NC(=O)CC3c2ccncc2)cs1.O=C(O)C(F)(F)F.O=C(O)C(F)(F)F (stereo not given) | - | - | 2.652 | -
OCCOCc1n[nH]c2c1CN(Cc1ccco1)C2 | 0.8603 | 4.813 | - | -4.621
Cc1ccc(NC(=O)CN2CCOCC2)c(F)c1 | -5.56 | 10.89 | 2.982 | -3.854
CC(C)NC(=O)N1CCN(S(=O)(=O)C2CC2)CC2(CNC(=O)C2)C1 (stereo not given) | -2.758 | 1.087 | 4.944 | -9.725
O=C(NCc1nc(C2CCCCC2)no1)C1CC(=O)N(C2CC2)C1 (stereo not given) | 2.503 | 9.091 | 0.7365 | 2.182
O=C1CN(Cc2cn(C3CCN(C4CSCCSC4)CC3)nn2)CCN1 | 3.251 | 6.667 | 28.01 | 2.903
[H][C@@]12CCN(c3ccc(C)nn3)C[C@]1(C(=O)N1CCCO1)CCO2 | - | - | 21.11 | -
NC(=O)C(CNC(=O)CCc1ccccc1)Cc1ccc(F)cc1 (stereo not given) | 7.129 | 9.548 | 8.552 | 0.8773
O=c1[nH]nc2c(S(=O)(=O)N3CCOCC3)cccn12 | 2.044 | 14 | 11.59 | 4.88
COc1ccc(/C=C/CN2CCCC3(C2)CN(C)C(=O)O3)cc1 (stereo not given) | 0.5593 | -2.618 | 14.77 | 6.211
O=C(O)C(F)(F)F.[H][C@@]12C[C@H](C(=O)NC3CCCC3)CN(Cc3ccoc3)[C@]1([H])CCO2 | - | - | -6.442 | -
Cc1cc(CN2CCCCC2Cn2cncn2)no1 (stereo not given) | 2.001 | 3.529 | 25.73 | -4.951
CN1CC2(CCCN(C(=O)c3cnc4ccc(F)cc4c3O)C2)OC1=O (stereo not given) | 0.4812 | 0 | 19.68 | -17.37

4 of the entries, repeated:

With NC(=O)C(CNC(=O)CCc1ccccc1)Cc1ccc(F)cc1 (stereo not given) the screen gave PfKRS1: 7.129%; TcHisRS: 9.548%; Leishmania in macrophages: 8.552%; Pks13 thioesterase: 0.8773%.
With NC(=O)C1CCN(Cc2cc3c(cc2Br)OCCO3)C1 (stereo not given) the screen gave PfKRS1: 2.98%; TcHisRS: 5.911%; Leishmania in macrophages: 17.06%; Pks13 thioesterase: 15.55%.
With CC1(C)Cc2nc(C(C)(C)C)ncc2C(NC(=O)Cc2nnn[nH]2)C1 (stereo not given) the screen gave PfKRS1: -7.777%; TcHisRS: 9.453%; Leishmania in macrophages: -22.43%; Pks13 thioesterase: 29.45%.
With Cc1ccc(C2(CN3CCN(Cc4cnc(C)n4C)CC3)CC2)cc1.Cl the screen gave Leishmania in macrophages: 0.995%.

Data taken from ChEMBL document CHEMBL3988442, “University of Dundee, Small-Polar-MMV Screening Library” (2021).